Values from PubChem BioAssay AID1259424 (University of Nebraska Medical Center, 2018).

Purpose: 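Rank knockdowns across the genome by resemblance to the KSR1 depletion profile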 (primary screen)
System: human HCT116 colon cancer cells
Reagents: siRNA pool against human genes, 50 nM
Measured: 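Six signature mRNAs by branched-DNA multiplex assay, scaled to two housekeeping genes and non-targeting median, log2; matched to mean KSR1 knockdown profile by Pearson correlation and euclidean distance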
Scale: mean correlation with KSR1 profile: higher = expression change more like KSR1 knockdown
This is an unselected part of about 14,000 reagents tested. 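Higher correlation or smaller distance means closer resemblance to KSR1 loss; control wells, including KSR1 knockdowns, recur on many plates.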 Not all columns of the deposit are shown. Not stated in the record: the time to read-out.

Depletion of HOOK1 gave: mean correlation with KSR1 profile -0.0194. With knock-down of PDRG1, the screen gave mean correlation with KSR1 profile 0.042. After knock-down of ZNF2 the results were mean correlation with KSR1 profile -0.275. After knock-down of KLK4, the record shows mean correlation with KSR1 profile -0.782. After knock-down of CAVIN2, the record shows mean correlation with KSR1 profile 0.823. Knock-down of EMC1 resulted in: mean correlation with KSR1 profile -0.465.

With knock-down of FBXO21, the screen gave mean correlation with KSR1 profile -0.0811. With knock-down of RCC1L, the record shows mean correlation with KSR1 profile 0.59. For FBXW11, the values are mean correlation with KSR1 profile -0.452. Silencing of SPAG6 gave: mean correlation with KSR1 profile -0.701. Depletion of FOS came out at: mean correlation with KSR1 profile 0.88. After knock-down of TP53TG1 the results were mean correlation with KSR1 profile -0.0934.

STAT5B scored mean correlation with KSR1 profile -0.503. With knock-down of KCNMB4, the record shows mean correlation with KSR1 profile 0.0537. Knock-down of LRP10 gave: mean correlation with KSR1 profile 0.18. Silencing of AMZ2 gave: mean correlation with KSR1 profile -0.151. For ZNF559, the values are mean correlation with KSR1 profile 0.771. Silencing of WDR77 came out at: mean correlation with KSR1 profile -0.614.

With knock-down of DNAJC30, the record shows mean correlation with KSR1 profile 0.364. For OR2S2, the entry reads mean correlation with KSR1 profile 0.577. Depletion of CLP1 gave: mean correlation with KSR1 profile 0.103. After knock-down of NOP2, the record shows mean correlation with KSR1 profile -0.265. SLC2A5 gave mean correlation with KSR1 profile -0.282. For GPCPD1, the values are mean correlation with KSR1 profile -0.402.

Depletion of SLC9A8 resulted in: mean correlation with KSR1 profile 0.467. RPL22 scored mean correlation with KSR1 profile -0.00811. SLC44A4 scored mean correlation with KSR1 profile 0.0177. Depletion of ZNF157 came out at: mean correlation with KSR1 profile -0.0475.

Reprinted from above for reference:
KLK4 | mean correlation with KSR1 profile: -0.782
CAVIN2 | mean correlation with KSR1 profile: 0.823
EMC1 | mean correlation with KSR1 profile: -0.465
FBXO21 | mean correlation with KSR1 profile: -0.0811
